PubChem BioAssay AID1439 (NMMLSC, 2008)
About 770 (0.35%) of roughly 220,000 compounds were called active. The inconclusive results got no clear call from the source; some entries with a clear call stand among them for comparison. Rule as the data show it: active = binding response below about 49% or above about 150%; inconclusive = no clear call, values can overlap the other calls; inactive = in between.

Amino acid sequences for entries named in this document (tags omitted).
UniProt P09471, whole entry, looked up: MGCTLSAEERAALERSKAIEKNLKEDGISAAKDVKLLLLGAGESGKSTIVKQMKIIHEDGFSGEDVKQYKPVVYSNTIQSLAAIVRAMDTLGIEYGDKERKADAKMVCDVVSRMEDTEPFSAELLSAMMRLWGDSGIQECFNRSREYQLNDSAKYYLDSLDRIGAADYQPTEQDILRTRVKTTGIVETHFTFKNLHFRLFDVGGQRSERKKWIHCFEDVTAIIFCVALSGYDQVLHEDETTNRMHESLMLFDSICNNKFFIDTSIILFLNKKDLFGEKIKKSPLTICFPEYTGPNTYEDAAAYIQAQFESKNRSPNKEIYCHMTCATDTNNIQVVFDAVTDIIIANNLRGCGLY

These molecules were tested against Guanine nucleotide-binding protein G(o) subunit alpha (Homo sapiens) (UniProt P09471) (assay: RGS7-Galphao binding modulators, primary screen, biochemical, multiplexed bead flow cytometry (AID 1439;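 also: fluorescent Galphao held in activated GDP-AlF4 state binding bead-coupled RGS7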)). Settings: at 10 µM, actives lie on both sides.

Compound	binding response (% of control)
CC(C)CNC(=O)COC(=O)c1cccc(S(=O)(=O)NCC(F)(F)F)c1	inconclusive: 104%
C[C@@H]1C=C(C(=O)NC2CC2)O[C@H](OCc2ccc(CO)cc2)C1	inconclusive: 112%
CSc1nnc(C(C)(C)C)c(=O)n1/N=C/c1ccccc1O	inconclusive: 110%
Cc1cc(NC(=O)COC(=O)c2cc(S(=O)(=O)N(C)c3ccccc3)ccc2Cl)no1	inconclusive: 92.3%
CC(NC(=O)NC(=O)c1ccc(Cl)cc1Cl)C1CC1 (stereo not drawn)	inconclusive: 102%
Cn1c(/C=N/O)nc2ccccc21	inconclusive: -200%
CC1(C)Cc2c(C#N)c(N)n(-c3ccccc3)c(=S)c2CO1	inconclusive: 21.7%
Cc1c(C(=O)Nc2cc(S(=O)(=O)N3CCOCC3)ccc2N2CCN(C)CC2)oc2ccccc12	inconclusive: 102%
O=c1[nH]cc(C(F)(F)F)cc1NS(=O)(=O)c1ccc([N+](=O)[O-])cc1	inconclusive: 124%
Cc1ccc2c(c1)C(=O)C(=O)N2CC(=O)Nc1ccccc1NC(=O)c1ccccn1	inconclusive: 74%
CCN1CCN(c2nc(Nc3ccc(OC)cc3)nc(N)c2[N+](=O)[O-])CC1	inconclusive: 349%
COc1ccc(C(=O)COC(=O)CCc2nc3ccccc3[nH]c2=O)cc1Br	inconclusive: 88%
O=C(Nc1ccc(Oc2nnc(-c3ccccc3)c3ccccc23)cc1)c1ccccc1	inactive: 106%
COc1ccc(/C=C/C(=O)NCCSCc2ccco2)cc1OC	inconclusive: 100%
CCOC(=O)C1(Cc2ccc(OC)cc2)CCN(C(=O)c2cccc3nccnc23)CC1	inactive: 99%
O=[N+]([O-])c1cc(-n2cccc2)ccc1N1CCOCC1	inconclusive: 110%
COc1cccc(Cl)c1NC(=O)N1CCc2c([nH]c3ccccc23)C1C(F)(F)F (stereo not drawn)	inconclusive: 117%
O=C(COc1ccc([N+](=O)[O-])cc1)Nc1ccc2c(c1)OCO2	inactive: 99.7%
Cc1ccc(CN2C(=O)CNC2=S)cc1	inconclusive: 71.4%
Cc1sc2nc(-c3ccccn3)[nH]c(=O)c2c1-c1ccccc1	inconclusive: 92.3%

Compound	binding response (% of control)
NC(=O)N/N=C/c1ccccc1OC(=O)c1ccccc1Br	inconclusive: 134%
C=CCn1c(C)cc(C(=O)COC(=O)CNC(=O)c2ccccc2)c1C	inactive: 103%
CN(C)C(=S)NC(=O)C12CC3CC(C)(CC(C)(C3)C1)C2	inconclusive: 104%
O=c1c2cc(NC(=S)NC3CCCCC3)ccc2nc2n1CCCCC2	inconclusive: 97.4%
Cc1cc2nc(/N=C(\N)NC(=O)N3c4ccccc4Sc4ccccc43)nc(C)c2cc1C	inactive: 103%
COC(=O)c1ccc(CN2CCN(CC=C(C)C)C(CCO)C2)cc1 (stereo not drawn)	inactive: 109%
O=C(NNC(=O)c1ccc(Oc2cc(Cl)cc(Cl)c2)o1)c1ccccc1	inconclusive: 94.3%
COc1ccc(CNC(=O)C/C(C)=N/NC(=O)COc2cccc(C)c2)cc1	inactive: 103%
O=C(O)c1cc(NN=Nc2cccc([N+](=O)[O-])c2)cc([N+](=O)[O-])c1	inconclusive: 84.7%
O=C(CC1SC(=Nc2ccc3c(c2)OCCO3)NC1=O)Nc1ccc(F)cc1F (stereo not drawn)	inconclusive: 447%
O=C(NCCCCc1ccccc1)C1CC(c2ccccc2C(F)(F)F)=NO1 (stereo not drawn)	inconclusive: 95.5%
CSc1nc(N)nc(C2CC2)n1	inconclusive: 129%
N/C(=N\O)c1ccc(Cl)cc1Cl	inconclusive: 120%
Cc1sc2nc3c4ccccc4c(NCc4ccco4)nn3c(=O)c2c1C	inactive: 119%
Cc1ccc(SCC(=O)Nc2ccc(S(N)(=O)=O)cc2)cc1	inactive: 107%
C[C@@H]1CC=C[C@H]2[C@H]1C(=O)N(Cc1ccccc1)[C@H]2c1ccc(F)c(-c2ccc(N(C)C)cc2)c1	inconclusive: 102%
Oc1ccc(N=Nc2n[nH]c(-c3ccccc3)n2)cc1	inactive: 87.2%
Cc1ccccc1NC(=O)/C=C1\SC(=O)NC1=O	inactive: 101%
COC(=O)c1sccc1NC(=O)CC1C(=O)NCCN1C(=O)c1ccc(F)cc1 (stereo not drawn)	inconclusive: 88.4%
O=C(NC1CCCCC1)Oc1ccccc1	inconclusive: -52.2%

Structures above containing a furan ring, fused or not, in the order listed:
Compound	binding response (% of control)
Cc1c(C(=O)Nc2cc(S(=O)(=O)N3CCOCC3)ccc2N2CCN(C)CC2)oc2ccccc12	inconclusive: 102%
COc1ccc(/C=C/C(=O)NCCSCc2ccco2)cc1OC	inconclusive: 100%
O=C(NNC(=O)c1ccc(Oc2cc(Cl)cc(Cl)c2)o1)c1ccccc1	inconclusive: 94.3%
Cc1sc2nc3c4ccccc4c(NCc4ccco4)nn3c(=O)c2c1C	inactive: 119%

Remaining list, next part.

Compound	binding response (% of control)
Cc1cc(C)n2nc(C(=O)N/N=C/c3cn(C)nc3C)nc2n1	inconclusive: 68.6%
Cc1ccc(-c2ccc3nnc(SCC(=O)NCC4CCCO4)n3n2)cc1 (stereo not drawn)	inconclusive: 107%
COc1ccc(C(O)Cn2cc([N+](=O)[O-])nc2C)cc1 (stereo not drawn)	inconclusive: 109%
COc1ccc(C(F)(F)F)cc1N/C=C/c1nnnn1-c1ccc2ccccc2c1	inconclusive: 46.4%
COC(=O)[C@H](Cc1ccccc1)NC(=O)N(C)Cc1ccccc1	inconclusive: 105%
O=C(NCc1ccccc1C(F)(F)F)C1CC(c2cccc(F)c2)=NO1 (stereo not drawn)	inconclusive: 113%
Cn1c(SCC(=O)c2ccccc2)nnc1-c1ccncc1	inconclusive: 90.4%
Clc1ccc(Nc2ccccc2)nn1	inconclusive: 194%
CCCS(=O)(=O)c1csc(C(=O)OC)c1N	inconclusive: 116%
Cc1ccnc(NC(=O)c2ccc3c(c2)C(=O)N(CC2CCCO2)C3=O)c1 (stereo not drawn)	inconclusive: 91.7%
CCN(c1ccccc1)S(=O)(=O)c1ccc(N)c(OC)c1	inactive: 96.1%
Nc1c(C(=O)CCC(=O)O)oc2ccc(Cl)cc12	inactive: 101%
CCN(CC)S(=O)(=O)c1cc(NC(=O)C(C)N2CCc3ccccc32)ccc1C (stereo not drawn)	inconclusive: 115%
O=C1C2C(C(=O)N1CCN1CCN(Cc3ccc([N+](=O)[O-])cc3)CC1)[C@H]1C=C[C@@H]2C1 (stereo partly drawn)	inconclusive: 105%
O=C(O)C1C2C=CC(C2)C1C(=O)N1CCOCC1 (stereo not drawn)	inactive: 104%
COc1cc(-c2noc(CCCC(=O)Nc3cccnc3)n2)cc(OC)c1OC	inconclusive: 73.1%
CCCN(CCC)Cc1cc(=O)oc2cc3c(cc12)CCC3	inconclusive: 119%
Cc1cccc2cc(/C=N/NC(=O)[C@H]3C[C@@H]3c3ccccc3)c(Cl)nc12	inconclusive: 107%
